Measurements from the supplement of paper PMC3334620.
In all, about 33,000 sequences were measured (“E-score (-0.5 to 0.5)”: median about -0.016, highest 2% from about 0.3 on). This is one part of the list.

biological target: T1, Yer184c (UniProt P39961); test: PBM E-score (8-mer binding enrichment) (E-score (-0.5 to 0.5)); higher = stronger / more preferred TF binding; conditions: protein concentration: 100 nM; construct: GST-full length
T1 sequence: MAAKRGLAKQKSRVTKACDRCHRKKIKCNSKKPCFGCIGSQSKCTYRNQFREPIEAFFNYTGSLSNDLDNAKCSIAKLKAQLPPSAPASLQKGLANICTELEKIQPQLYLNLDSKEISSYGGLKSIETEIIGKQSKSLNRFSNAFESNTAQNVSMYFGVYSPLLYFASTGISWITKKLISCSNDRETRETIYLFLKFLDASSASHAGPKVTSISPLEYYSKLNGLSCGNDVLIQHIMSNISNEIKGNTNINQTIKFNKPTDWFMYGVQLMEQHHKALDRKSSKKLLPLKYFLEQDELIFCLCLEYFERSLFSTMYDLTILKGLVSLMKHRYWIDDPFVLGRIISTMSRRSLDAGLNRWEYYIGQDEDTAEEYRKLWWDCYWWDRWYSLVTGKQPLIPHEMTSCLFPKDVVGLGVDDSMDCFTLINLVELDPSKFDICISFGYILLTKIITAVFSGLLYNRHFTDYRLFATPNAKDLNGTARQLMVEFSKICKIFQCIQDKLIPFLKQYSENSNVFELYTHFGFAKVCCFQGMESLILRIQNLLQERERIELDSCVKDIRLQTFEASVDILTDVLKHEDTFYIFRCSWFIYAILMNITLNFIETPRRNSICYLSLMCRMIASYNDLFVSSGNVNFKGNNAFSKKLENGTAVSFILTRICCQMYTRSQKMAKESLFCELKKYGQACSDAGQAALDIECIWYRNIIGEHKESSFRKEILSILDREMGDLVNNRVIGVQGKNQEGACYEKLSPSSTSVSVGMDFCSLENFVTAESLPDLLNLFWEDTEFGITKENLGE
Method in brief: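 Detection of bound protein used fluorescent anti-GST, with scans normalised by masliner. The proteins were GST-tagged yeast transcription factors applied at about 100-200 nM to universal all-10-mer Agilent arrays made double-stranded by primer extension. Each ungapped eight-base word, pooled with its reverse complement, was scored with an E-score from the Universal PBM Analysis Suite.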

Sequence	PBM E-score
AATCAGAT	0.152
AAGTCGGA	0.154
TGCCGCCA	0.116
GAAGGAAC	-0.0358
AACTAGAC	0.175
CGTATACG	0.0942
AGCTCGAG	-0.0838
ATCAGGCC	-0.126
GAATTTCC	0.134
GAGCGCAC	-0.133
GTCATATA	0.148
CGGAAGAG	0.0611
GGATATGA	0.0918
AAAAATAC	0.0858
ACAAACTC	0.11
ACCTACGG	-0.233
CTCTCGAA	-0.145
GTGAACTA	0.0334
CACTCGAA	0.0255
AGTAGTGA	0.0458
AGAGGGAT	-0.346
CTCTACCA	-0.259
AGGGAGGG	-0.194
GGCTATCA	0.131

Quoted at random: 2 records from the list
Sequence	PBM E-score
GGATATGA	0.0918
TGCCGCCA	0.116

(list continues)

Sequence	PBM E-score
GCGGACAA	0.298
AGTATGCA	-0.0246
AAGAGTTG	-0.0223
CAGAGGCG	-0.23
AAGTGAAT	0.194
CAGTCTTC	-0.152
TAGTTACA	0.00595
CACCCGGC	0.15
CTCGCCAG	-0.215
ACCTCAGG	-0.297
GTTCCAAC	0.147
ACTCGCTG	-0.0118
ACCAATCG	0.0959
AGAATGAC	-0.0794
AAAAGAAC	0.048
CTCGATAA	0.231
CCCCGTCG	-0.245
AGACACAT	-0.0872
GTAGCTGA	-0.104
CGAAGGTA	0.00719
GCACAGAC	0.193
ACATTTGG	-0.107
ATAAAGGA	-0.134
AGTCCGGA	0.429

Sequence	PBM E-score
AGTAGCGA	-0.0699
GACCTGTA	-0.187
CCAATAAA	0.0682
CTGGTTGA	-0.186
GGAAGCTA	0.18
CGGTATGC	-0.0572
CACCACGA	0.0645
AGACACAG	-0.00248
ACGGCATG	-0.078
CAGTATGA	0.0255
AAAATAAT	0.282
GCCCGCCC	-0.0369
GTTAACCA	0.18
CACAGTAA	0.106
GAAAGTGC	-0.17
GAGCGACA	-0.145
CTTTAAGA	0.21
GCTGAGCA	-0.0795
ACCGTTCA	0.0037
ACGCAGAC	-0.0139
ATGGGTGG	-0.259
ATGTGACG	-0.191
GTGCAAGA	0.137
ACTCACAT	-0.255

Sequence	PBM E-score
ATTATTCC	0.115
CTTTATAC	0.155
CGCCAGAC	0.096
ACAAGTAA	-0.106
CAGACTCC	-0.161
GAATACCC	-0.0329
CCGTCATC	-0.0925
ATGATTCA	0.00877
AGATTAGA	0.0606
AAGTTCGT	0.0126
GAGCTGCA	-0.102
CGCGCCCC	-0.073
ATGACCTA	-0.0893
ACTAATCT	0.0196
CATCCGCC	0.0602
AGGCTGGA	-0.308
ACACGATC	-0.00138
TCGCGAAA	0.0776
CCGCATCG	0.0409
TACGAGAA	0.0363
CTAAAATC	-0.115
TGAAATAA	0.127
